Measurements: PMC6789111 (Nature Communications, 2019)

Assay: general procedure: Fmoc solid-phase peptide synthesis; 2-chlorotrityl chloride resin (Cl-Resin, Genscript); HBTU/DIEA
Settings: whole synthesis, analytical HPLC

| Substance | final HPLC purity |
| --- | --- |
| Cy5.5- CGYRPVHNIGHWRAPG | 98.50% |
| Cy5.5-CGYRPVHNIRGHWAPG | 98.20% |
| PEPTIDE1{C.G.Y.R.P.V.H.N.I.R.G.H.W.A.P.G.[KF5]}$$$$V2.0 | 98.36% |
| PEPTIDE1{C.G.Y.R.P.V.H.N.I.R.G.H.W.A.P.G}$$$$V2.0 | 98.11% |
| PEPTIDE1{[fam5].C.G.Y.R.P.V.H.N.I.G.H.W.R.A.P.G}$$$$V2.0 | 98.56% |
| PEPTIDE1{[fam5].C.G.Y.R.P.V.H.N.I.R.G.H.G.A.P.G}$$$$V2.0 | 98.26% |
| PEPTIDE1{[fam5].C.G.Y.R.P.V.H.N.I.R.G.H.W.A.P.G}$$$$V2.0 | 98.91% |
| PEPTIDE1{[fam5].G.Y.R.P.V.H.N.I.R.G.H.W.A.P.G}$$$$V2.0 | 98.46% |

Some peptides are written in HELM: one residue between dots, names in brackets for other building blocks, links after the first $.
